The list shows a part of the results. Most of these values are background signal.
Columns and labels:
Assay in all cases: fluorescence intensity of antibody binding to polysaccharide-coupled beads; higher = stronger binding
[1] = biological target: pneumococcal polysaccharide Pn34
[2] = biological target: pneumococcal polysaccharide Pn35A
[3] = biological target: pneumococcal polysaccharide Pn35B
[4] = biological target: pneumococcal polysaccharide Pn35C
[5] = biological target: pneumococcal polysaccharide Pn35F
[6] = biological target: pneumococcal polysaccharide Pn36
[7] = biological target: pneumococcal polysaccharide Pn37
[8] = biological target: pneumococcal polysaccharide Pn38
[9] = biological target: pneumococcal polysaccharide Pn39
[10] = biological target: pneumococcal polysaccharide Pn4
[11] = biological target: pneumococcal polysaccharide Pn40
[12] = biological target: pneumococcal polysaccharide Pn41A
[13] = antibody concentration 0.1 ng/mL
[14] = antibody concentration 0.534724 ng/mL
[15] = antibody concentration 2.8593 ng/mL
[16] = antibody concentration 15.2894 ng/mL
[17] = antibody concentration 81.7561 ng/mL
[18] = antibody concentration 437.17 ng/mL
[19] = antibody concentration 2337.65 ng/mL
[20] = antibody concentration 12500 ng/mL

B1: 3S41.2 (protein)
chain 1: EVQLVESGGGLVQPGGSLRLSCATSGFTFRNYWMYWFRQAPGKGLDWVSSISDSSSNTFYSDSVKGRFTISRDNAKNTLYLQMNSLRAEDTAVYYCARRPIAAATGVYWYFDLWGPGTPITVSS
chain 2: QAALTQPPSMSGSPGQSVTISCTGTSSDIGGYNRVSWYQQYPGKAPKLMIYEVSKRPSGVSDRFSGSKSGNTAALTISGLQAADEADYYCSSYAGSYTFVLFGGGTRLTVL
fluorescence intensity [1, 13]: 14 MFI | fluorescence intensity [1, 14]: 13.2 MFI | fluorescence intensity [1, 15]: 14 MFI | fluorescence intensity [1, 16]: 15 MFI | fluorescence intensity [1, 17]: 13.8 MFI | fluorescence intensity [1, 18]: 15 MFI | fluorescence intensity [1, 19]: 19 MFI | fluorescence intensity [1, 20]: 24.5 MFI | fluorescence intensity [2, 13]: 16.5 MFI | fluorescence intensity [2, 14]: 16.5 MFI | fluorescence intensity [2, 15]: 16.5 MFI | fluorescence intensity [2, 16]: 17 MFI | fluorescence intensity [2, 17]: 17.5 MFI | fluorescence intensity [2, 18]: 18 MFI | fluorescence intensity [2, 19]: 36.5 MFI | fluorescence intensity [2, 20]: 198 MFI | fluorescence intensity [3, 13]: 18 MFI | fluorescence intensity [3, 14]: 18 MFI | fluorescence intensity [3, 15]: 18.8 MFI | fluorescence intensity [3, 16]: 18 MFI | fluorescence intensity [3, 17]: 18 MFI | fluorescence intensity [3, 18]: 19 MFI | fluorescence intensity [3, 19]: 31.2 MFI | fluorescence intensity [3, 20]: 124 MFI | fluorescence intensity [4, 13]: 20 MFI | fluorescence intensity [4, 14]: 19.5 MFI | fluorescence intensity [4, 15]: 20 MFI | fluorescence intensity [4, 16]: 20.5 MFI | fluorescence intensity [4, 17]: 19.5 MFI | fluorescence intensity [4, 18]: 20.2 MFI | fluorescence intensity [4, 19]: 21.5 MFI | fluorescence intensity [4, 20]: 30.5 MFI | fluorescence intensity [5, 13]: 21 MFI | fluorescence intensity [5, 14]: 20 MFI | fluorescence intensity [5, 15]: 19.5 MFI | fluorescence intensity [5, 16]: 20.5 MFI | fluorescence intensity [5, 17]: 21 MFI | fluorescence intensity [5, 18]: 22 MFI | fluorescence intensity [5, 19]: 24 MFI | fluorescence intensity [5, 20]: 28.5 MFI | fluorescence intensity [6, 13]: 15 MFI | fluorescence intensity [6, 14]: 15.5 MFI | fluorescence intensity [6, 15]: 17 MFI | fluorescence intensity [6, 16]: 16.5 MFI | fluorescence intensity [6, 17]: 16 MFI | fluorescence intensity [6, 18]: 18 MFI | fluorescence intensity [6, 19]: 37 MFI | fluorescence intensity [6, 20]: 168 MFI | fluorescence intensity [7, 13]: 25.5 MFI | fluorescence intensity [7, 14]: 25 MFI | fluorescence intensity [7, 15]: 28 MFI | fluorescence intensity [7, 16]: 25.5 MFI | fluorescence intensity [7, 17]: 26.5 MFI | fluorescence intensity [7, 18]: 33.5 MFI | fluorescence intensity [7, 19]: 143 MFI | fluorescence intensity [7, 20]: 960 MFI | fluorescence intensity [8, 13]: 24.5 MFI | fluorescence intensity [8, 14]: 25.5 MFI | fluorescence intensity [8, 15]: 24.8 MFI | fluorescence intensity [8, 16]: 27 MFI | fluorescence intensity [8, 17]: 26.8 MFI | fluorescence intensity [8, 18]: 26.5 MFI | fluorescence intensity [8, 19]: 30.5 MFI | fluorescence intensity [8, 20]: 57 MFI | fluorescence intensity [9, 13]: 17.5 MFI | fluorescence intensity [9, 14]: 18.8 MFI | fluorescence intensity [9, 15]: 18.8 MFI | fluorescence intensity [9, 16]: 17.5 MFI | fluorescence intensity [9, 17]: 18.5 MFI | fluorescence intensity [9, 18]: 19.5 MFI | fluorescence intensity [9, 19]: 33.8 MFI | fluorescence intensity [9, 20]: 118 MFI | fluorescence intensity [10, 13]: 18 MFI | fluorescence intensity [10, 14]: 19 MFI | fluorescence intensity [10, 15]: 18 MFI | fluorescence intensity [10, 16]: 18.5 MFI | fluorescence intensity [10, 17]: 18.2 MFI | fluorescence intensity [10, 18]: 20 MFI | fluorescence intensity [10, 19]: 30.8 MFI | fluorescence intensity [10, 20]: 52.5 MFI | fluorescence intensity [11, 13]: 16.8 MFI | fluorescence intensity [11, 14]: 15.5 MFI | fluorescence intensity [11, 15]: 17 MFI | fluorescence intensity [11, 16]: 16.8 MFI | fluorescence intensity [11, 17]: 17.5 MFI | fluorescence intensity [11, 18]: 19 MFI | fluorescence intensity [11, 19]: 47.5 MFI | fluorescence intensity [11, 20]: 250 MFI | fluorescence intensity [12, 13]: 25 MFI | fluorescence intensity [12, 14]: 22.5 MFI
